Among the data in patent US20200179450A1 are binding values, retold here.

By UniProt entry, the sequences of proteins in these tests, tags left out. Where a name states a change or a piece, a line headed by the entry shows the natural chain unless it says otherwise. Residues count along the entry.
UniProt P06127, residues 25-372: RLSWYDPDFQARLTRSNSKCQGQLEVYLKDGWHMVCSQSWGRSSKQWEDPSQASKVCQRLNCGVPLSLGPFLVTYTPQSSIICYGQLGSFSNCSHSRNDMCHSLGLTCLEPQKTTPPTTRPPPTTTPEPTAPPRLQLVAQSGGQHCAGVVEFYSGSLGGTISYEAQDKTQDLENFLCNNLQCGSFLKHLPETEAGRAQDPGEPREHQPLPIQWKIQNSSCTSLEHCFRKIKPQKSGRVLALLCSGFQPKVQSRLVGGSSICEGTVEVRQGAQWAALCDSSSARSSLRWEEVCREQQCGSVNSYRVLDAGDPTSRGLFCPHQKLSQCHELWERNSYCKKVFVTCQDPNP
UniProt P10747: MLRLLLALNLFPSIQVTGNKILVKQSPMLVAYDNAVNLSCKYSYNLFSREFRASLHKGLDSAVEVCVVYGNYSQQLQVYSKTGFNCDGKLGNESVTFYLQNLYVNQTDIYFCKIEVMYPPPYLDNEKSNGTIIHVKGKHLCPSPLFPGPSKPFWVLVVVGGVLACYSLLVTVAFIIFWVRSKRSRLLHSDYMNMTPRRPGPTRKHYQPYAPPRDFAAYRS

These are yes or no findings as the source states them, for the method shown. Some entries that bind do so weakly or less than the wild type.

The assay has as its target CD5-Fc fusion protein (UniProt P06127). Nature of the assay: flow cytometry; CAR-transduced Jurkat T cells stained with CD5-Fc, then anti-IgG Fc-PE. On the technique in general: In flow cytometry, cells or beads pass a laser one at a time.

Regarding “CD5-scFv-CAR (from UniProt P10747 153-220; P20963 52-164)”, the binding entry was “binds”.
